# Test results as given in the supplement of paper PMC10849652.
# By UniProt entry, the sequences of proteins in these tests, tags left out. Where a name states a change or a piece, a line headed by the entry shows the natural chain unless it says otherwise.
# UniProt Q9HC16: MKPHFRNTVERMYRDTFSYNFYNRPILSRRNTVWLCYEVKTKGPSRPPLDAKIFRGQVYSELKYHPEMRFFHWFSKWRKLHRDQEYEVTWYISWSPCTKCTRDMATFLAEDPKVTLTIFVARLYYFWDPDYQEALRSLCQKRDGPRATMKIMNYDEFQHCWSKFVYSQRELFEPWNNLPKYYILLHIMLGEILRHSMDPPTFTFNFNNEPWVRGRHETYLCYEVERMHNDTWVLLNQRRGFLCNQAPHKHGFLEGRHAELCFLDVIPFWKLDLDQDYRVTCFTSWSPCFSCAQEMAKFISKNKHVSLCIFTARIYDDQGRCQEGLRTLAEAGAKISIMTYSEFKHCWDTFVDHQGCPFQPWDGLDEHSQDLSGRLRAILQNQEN
# UniProt Q13795: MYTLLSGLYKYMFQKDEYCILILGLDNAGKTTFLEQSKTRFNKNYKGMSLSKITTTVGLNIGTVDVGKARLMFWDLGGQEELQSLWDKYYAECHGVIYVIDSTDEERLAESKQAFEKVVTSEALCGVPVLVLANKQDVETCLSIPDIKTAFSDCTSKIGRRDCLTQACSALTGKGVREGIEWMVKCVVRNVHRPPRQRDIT
# UniProt Q07960: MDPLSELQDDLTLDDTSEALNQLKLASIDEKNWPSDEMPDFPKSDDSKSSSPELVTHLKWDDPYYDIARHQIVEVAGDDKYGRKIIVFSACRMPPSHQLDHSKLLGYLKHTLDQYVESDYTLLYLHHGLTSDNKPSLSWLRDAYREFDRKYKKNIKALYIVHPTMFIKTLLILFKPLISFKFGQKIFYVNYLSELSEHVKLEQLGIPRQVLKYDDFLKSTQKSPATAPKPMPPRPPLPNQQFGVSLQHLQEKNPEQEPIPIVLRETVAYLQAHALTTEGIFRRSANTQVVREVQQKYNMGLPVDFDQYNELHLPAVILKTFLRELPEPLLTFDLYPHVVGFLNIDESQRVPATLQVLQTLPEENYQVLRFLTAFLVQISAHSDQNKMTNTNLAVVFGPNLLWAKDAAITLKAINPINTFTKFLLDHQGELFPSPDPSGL
# UniProt Q92572: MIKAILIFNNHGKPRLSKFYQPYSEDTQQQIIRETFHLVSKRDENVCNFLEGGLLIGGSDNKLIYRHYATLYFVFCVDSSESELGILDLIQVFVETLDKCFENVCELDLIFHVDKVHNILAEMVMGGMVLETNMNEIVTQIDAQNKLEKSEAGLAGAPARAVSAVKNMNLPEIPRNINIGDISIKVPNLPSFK
# UniProt P07355, whole entry, looked up: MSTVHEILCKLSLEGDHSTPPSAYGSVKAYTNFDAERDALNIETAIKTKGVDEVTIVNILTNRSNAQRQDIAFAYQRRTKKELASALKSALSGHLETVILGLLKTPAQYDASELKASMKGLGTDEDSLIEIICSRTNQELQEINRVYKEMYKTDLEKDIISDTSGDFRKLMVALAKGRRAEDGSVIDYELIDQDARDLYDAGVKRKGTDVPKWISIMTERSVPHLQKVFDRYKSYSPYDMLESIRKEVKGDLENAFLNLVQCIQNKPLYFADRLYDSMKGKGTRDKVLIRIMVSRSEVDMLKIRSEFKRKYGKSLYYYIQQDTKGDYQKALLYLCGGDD
# UniProt P53680: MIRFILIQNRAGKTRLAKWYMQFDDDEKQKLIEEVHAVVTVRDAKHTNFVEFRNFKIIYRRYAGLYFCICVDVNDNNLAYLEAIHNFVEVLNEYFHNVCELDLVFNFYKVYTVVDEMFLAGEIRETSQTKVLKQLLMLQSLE
# UniProt Q9NWB6: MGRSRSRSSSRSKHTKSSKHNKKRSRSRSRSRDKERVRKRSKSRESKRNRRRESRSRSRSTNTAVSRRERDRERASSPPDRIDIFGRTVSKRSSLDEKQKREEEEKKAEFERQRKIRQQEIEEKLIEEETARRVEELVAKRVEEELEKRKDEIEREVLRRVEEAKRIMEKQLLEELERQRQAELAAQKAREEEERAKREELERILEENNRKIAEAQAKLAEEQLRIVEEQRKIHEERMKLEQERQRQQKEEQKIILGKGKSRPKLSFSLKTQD
# UniProt Q9H8Y5: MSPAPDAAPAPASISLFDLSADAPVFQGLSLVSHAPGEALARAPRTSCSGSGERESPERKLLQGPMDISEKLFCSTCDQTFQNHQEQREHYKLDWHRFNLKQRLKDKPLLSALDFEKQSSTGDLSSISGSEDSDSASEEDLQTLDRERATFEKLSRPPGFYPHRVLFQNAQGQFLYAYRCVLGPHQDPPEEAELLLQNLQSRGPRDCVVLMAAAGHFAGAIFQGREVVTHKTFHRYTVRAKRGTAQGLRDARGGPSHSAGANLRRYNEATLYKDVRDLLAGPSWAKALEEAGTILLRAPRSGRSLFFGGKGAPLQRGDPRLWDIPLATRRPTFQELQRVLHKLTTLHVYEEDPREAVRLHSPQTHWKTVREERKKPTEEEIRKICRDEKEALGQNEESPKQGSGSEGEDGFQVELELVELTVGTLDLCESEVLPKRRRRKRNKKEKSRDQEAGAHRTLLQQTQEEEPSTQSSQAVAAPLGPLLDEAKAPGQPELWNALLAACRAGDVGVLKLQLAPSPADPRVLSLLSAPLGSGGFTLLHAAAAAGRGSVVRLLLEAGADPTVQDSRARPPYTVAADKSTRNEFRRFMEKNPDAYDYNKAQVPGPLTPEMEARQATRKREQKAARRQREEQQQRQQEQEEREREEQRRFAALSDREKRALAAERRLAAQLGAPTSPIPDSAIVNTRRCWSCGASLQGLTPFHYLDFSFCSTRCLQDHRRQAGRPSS
# UniProt Q9BZZ5: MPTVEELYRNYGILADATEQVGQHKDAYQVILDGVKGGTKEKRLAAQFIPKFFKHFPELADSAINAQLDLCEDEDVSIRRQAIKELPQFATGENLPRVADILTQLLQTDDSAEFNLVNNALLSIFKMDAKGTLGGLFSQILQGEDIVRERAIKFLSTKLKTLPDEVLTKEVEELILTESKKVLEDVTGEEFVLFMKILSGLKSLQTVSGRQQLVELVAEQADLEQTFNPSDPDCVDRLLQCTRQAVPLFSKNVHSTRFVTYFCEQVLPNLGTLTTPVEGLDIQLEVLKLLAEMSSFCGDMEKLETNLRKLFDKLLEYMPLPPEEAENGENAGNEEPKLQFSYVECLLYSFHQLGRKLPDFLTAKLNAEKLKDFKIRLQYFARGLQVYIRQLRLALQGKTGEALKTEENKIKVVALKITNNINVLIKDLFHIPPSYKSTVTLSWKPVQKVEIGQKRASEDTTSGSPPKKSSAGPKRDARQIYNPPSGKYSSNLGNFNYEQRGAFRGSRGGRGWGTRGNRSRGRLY
# UniProt Q92619: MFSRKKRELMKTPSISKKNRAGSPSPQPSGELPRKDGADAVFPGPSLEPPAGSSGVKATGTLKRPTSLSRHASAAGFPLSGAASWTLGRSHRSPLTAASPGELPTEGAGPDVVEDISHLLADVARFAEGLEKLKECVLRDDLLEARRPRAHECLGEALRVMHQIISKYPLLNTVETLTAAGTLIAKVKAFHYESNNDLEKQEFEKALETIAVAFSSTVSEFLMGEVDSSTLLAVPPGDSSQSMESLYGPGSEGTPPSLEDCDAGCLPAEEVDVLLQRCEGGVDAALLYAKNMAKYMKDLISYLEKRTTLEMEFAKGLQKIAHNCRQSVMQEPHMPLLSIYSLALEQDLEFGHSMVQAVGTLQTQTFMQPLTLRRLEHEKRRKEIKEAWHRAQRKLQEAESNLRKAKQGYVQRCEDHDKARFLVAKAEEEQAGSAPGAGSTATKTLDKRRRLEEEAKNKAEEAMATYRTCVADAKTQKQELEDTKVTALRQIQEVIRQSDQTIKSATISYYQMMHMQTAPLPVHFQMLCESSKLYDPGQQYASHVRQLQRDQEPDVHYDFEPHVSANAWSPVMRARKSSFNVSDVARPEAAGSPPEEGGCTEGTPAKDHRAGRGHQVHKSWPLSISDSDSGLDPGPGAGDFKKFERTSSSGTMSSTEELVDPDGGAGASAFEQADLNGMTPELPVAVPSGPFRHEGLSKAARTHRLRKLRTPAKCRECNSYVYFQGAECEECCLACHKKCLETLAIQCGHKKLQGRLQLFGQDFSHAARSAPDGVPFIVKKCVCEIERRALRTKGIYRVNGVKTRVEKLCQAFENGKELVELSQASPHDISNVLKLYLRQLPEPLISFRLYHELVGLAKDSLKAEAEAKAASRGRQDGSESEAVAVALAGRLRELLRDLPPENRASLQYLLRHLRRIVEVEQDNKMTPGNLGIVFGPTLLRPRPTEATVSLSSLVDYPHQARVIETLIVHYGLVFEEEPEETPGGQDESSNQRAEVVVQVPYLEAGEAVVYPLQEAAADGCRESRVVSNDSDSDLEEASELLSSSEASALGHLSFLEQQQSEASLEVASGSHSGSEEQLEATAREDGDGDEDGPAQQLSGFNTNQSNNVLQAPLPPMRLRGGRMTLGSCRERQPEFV
# UniProt Q06481, whole entry, looked up: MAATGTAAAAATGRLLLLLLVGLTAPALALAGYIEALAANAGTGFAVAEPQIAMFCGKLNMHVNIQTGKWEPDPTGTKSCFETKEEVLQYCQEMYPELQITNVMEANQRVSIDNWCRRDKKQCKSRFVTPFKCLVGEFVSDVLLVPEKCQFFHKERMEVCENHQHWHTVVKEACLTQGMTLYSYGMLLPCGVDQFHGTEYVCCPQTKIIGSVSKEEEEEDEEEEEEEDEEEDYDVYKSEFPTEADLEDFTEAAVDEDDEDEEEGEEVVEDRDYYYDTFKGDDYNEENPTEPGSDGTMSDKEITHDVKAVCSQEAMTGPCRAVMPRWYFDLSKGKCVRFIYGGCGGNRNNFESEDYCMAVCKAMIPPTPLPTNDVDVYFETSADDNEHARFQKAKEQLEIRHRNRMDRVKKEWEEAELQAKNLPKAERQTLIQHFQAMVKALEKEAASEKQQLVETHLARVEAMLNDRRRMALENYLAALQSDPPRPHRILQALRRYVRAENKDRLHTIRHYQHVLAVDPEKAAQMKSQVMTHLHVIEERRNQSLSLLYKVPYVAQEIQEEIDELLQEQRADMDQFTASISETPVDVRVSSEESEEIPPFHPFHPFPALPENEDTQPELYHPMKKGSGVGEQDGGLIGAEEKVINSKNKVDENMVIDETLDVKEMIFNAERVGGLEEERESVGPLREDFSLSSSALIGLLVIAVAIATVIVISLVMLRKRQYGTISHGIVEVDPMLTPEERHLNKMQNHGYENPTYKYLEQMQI
# UniProt Q9UPM8: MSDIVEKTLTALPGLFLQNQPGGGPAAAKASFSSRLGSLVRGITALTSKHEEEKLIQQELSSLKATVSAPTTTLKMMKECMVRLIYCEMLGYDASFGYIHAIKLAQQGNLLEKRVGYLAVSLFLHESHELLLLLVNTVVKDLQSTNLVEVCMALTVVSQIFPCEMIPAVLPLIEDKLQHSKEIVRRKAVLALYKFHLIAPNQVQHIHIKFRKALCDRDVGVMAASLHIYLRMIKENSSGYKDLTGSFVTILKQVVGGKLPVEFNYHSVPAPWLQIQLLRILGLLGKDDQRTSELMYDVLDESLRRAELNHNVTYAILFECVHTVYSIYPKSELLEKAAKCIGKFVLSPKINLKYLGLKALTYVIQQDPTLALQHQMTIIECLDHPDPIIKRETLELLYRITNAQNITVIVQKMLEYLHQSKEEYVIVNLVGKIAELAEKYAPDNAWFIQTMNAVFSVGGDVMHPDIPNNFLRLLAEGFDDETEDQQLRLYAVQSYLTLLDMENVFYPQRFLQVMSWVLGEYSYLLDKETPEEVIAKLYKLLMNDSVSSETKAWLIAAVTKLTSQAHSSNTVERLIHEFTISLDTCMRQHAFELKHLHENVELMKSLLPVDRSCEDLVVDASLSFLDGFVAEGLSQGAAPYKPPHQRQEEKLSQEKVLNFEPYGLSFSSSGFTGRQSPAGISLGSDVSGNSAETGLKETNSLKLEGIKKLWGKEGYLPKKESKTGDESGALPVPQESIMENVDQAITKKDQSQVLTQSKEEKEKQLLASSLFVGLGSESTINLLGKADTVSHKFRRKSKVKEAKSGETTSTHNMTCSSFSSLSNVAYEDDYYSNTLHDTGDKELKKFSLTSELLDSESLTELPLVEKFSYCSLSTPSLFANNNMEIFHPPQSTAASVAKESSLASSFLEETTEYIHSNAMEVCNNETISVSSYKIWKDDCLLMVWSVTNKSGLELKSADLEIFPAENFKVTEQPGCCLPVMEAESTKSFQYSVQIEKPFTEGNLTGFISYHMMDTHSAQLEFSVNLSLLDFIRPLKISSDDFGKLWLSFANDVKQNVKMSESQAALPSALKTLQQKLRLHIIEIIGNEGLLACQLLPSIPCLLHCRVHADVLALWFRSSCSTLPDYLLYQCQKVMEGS
# This is one part of the list. Residues, ends and D or L forms follow the SMILES beside them. *: point of attachment. Cbz = O=C(OCc1ccccc1)*
# Tests used:
# Experiment in all cases: log2 fold change, soluble protein after heating vs DMSO (PISA); higher = thermal stabilisation; K562 cells, 10 uM, 30 min; active = over 0.2 and 3.5 SD of the protein, either way, in both replicates (recomputed)
# erlotinib = compound: C#Cc1cccc(Nc2ncnc3cc(OCCOC)c(OCCOC)cc23)c1 [erlotinib]
# Summary of the method: (§1)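 K562 cells at 2×10^6 cells/mL were treated with 10 μM compound for 30 min. Aliquots were heated for 3 min across 48°C-58°C, pooled, and extracted in PBS with 0.5% NP-40 at 4°C; soluble protein was the supernatant after 21,000xg for 90 min. Soluble protein was quantified by TMTpro 16plex LC-MS/MS with channel sums equalised, and reported as log2 fold change in thermal stability against DMSO controls, with values from duplicates.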
# [1] = compound: C/C(=N\NC(=O)C1=CC(=CC=C1)S(=O)(=O)N2CCOCC2)/C3=C(C=CC(=C3)Cl)O
# Summary of the method: as §1
# [2] = compound: C1=CC(=C(C=C1Cl)C2=NC3=NC=CN=C3C(=N2)NC4=CC=NC=C4)F
# Summary of the method: as §1
# [3] = compound: C1=CC(=CC=C1C2=NC3=C(N2)C=C(C=C3)C(=O)N)OC4=CC=C(C=C4)Cl
# Summary of the method: as §1
# [4] = compound: C1=CC2=C(C=CC(=C2)/C=C\3/C(=O)NC(=NCC4=CC=CS4)S3)N=C1
# Summary of the method: as §1
# [5] = compound: C1=CC2=NC=CN=C2C=C1/C=C/3\C(=O)NC(=O)S3
# Summary of the method: as §1
# [6] = compound: C1=CC=C(C=C1)C2=NC(=C(N2)C3=CC=NC=C3)C4=CC(=C(C=C4)Cl)O
# Summary of the method: as §1
# [7] = compound: C1=CC=C2C(=C1)C3=NNC4=CC=CC(=C43)C2=O
# Summary of the method: as §1
# [8] = compound: C1CCN(C1)C(=O)NC2=CC=CC(=C2)NC3=NC=C(C(=N3)NCCC4=CN=CN4)Br
# Summary of the method: as §1
# [9] = compound: C1CN(CCC1(CC2=CC=C(C=C2)Cl)N)C3=NC=NC4=C3C=CN4
# Summary of the method: as §1
# IRAK-1-4 Inhibitor I = compound: C1COCCN1CCN2C3=CC=CC=C3N=C2NC(=O)C4=CC(=CC=C4)[N+](=O)[O-] [IRAK-1-4 Inhibitor I]
# Summary of the method: as §1
# ibrutinib = compound: C=CC(=O)N1CCC[C@@H](n2nc(-c3ccc(Oc4ccccc4)cc3)c3c(N)ncnc32)C1 [ibrutinib]
# Summary of the method: as §1
# [10] = compound: CC(=O)c1cnc2ccc(-c3cc(Cl)c(O)c(Cl)c3)nc2c1N[C@H]1CC[C@H](CN(C)C)CC1
# Summary of the method: as §1
# ralimetinib = compound: CC(C)(C)Cn1c(N)nc2ccc(-c3[nH]c(C(C)(C)C)nc3-c3ccc(F)cc3)nc21 [ralimetinib]
# Summary of the method: as §1
# [11] = compound: CC(C)(O)CC(=O)NCCn1ccc2ncnc(Nc3ccc(Oc4cccc(C(F)(F)F)c4)c(Cl)c3)c21
# Summary of the method: as §1
# [12] = compound: CC(C)C1=C2N=C(C=C(N2N=C1)NCC3=CC=CC=C3)NCCCCCCN
# Summary of the method: as §1
# [13] = compound: CC(C)C[C@@H](C=O)NC(=O)[C@H](CC(C)C)NC(=O)[C@H](CC(C)C)NC(=O)OCc1ccccc1
# Summary of the method: as §1
# pinometostat = compound: CC(C)N(C[C@H]1O[C@@H](n2cnc3c(N)ncnc32)[C@H](O)[C@@H]1O)[C@H]1C[C@@H](CCc2nc3cc(C(C)(C)C)ccc3[nH]2)C1 [pinometostat]
# Summary of the method: as §1
# [14] = compound: CC1=C(C(CC(=O)N1)C2=CC=C(C=C2)C(F)(F)F)C(=O)NC3=C(C=C4C(=C3)C=NN4)F
# Summary of the method: as §1
# [15] = compound: CC1=C(C2=C(C=C1)C(=O)C3=CC=CC=C3N2CCCN)C
# Summary of the method: as §1
Target,log2 fold change (erlotinib),log2 fold change [1],log2 fold change [2],log2 fold change [3],log2 fold change [4],log2 fold change [5],log2 fold change [6],log2 fold change [7],log2 fold change [8],log2 fold change [9],log2 fold change (IRAK-1-4 Inhibitor I),log2 fold change (ibrutinib),log2 fold change [10],log2 fold change (ralimetinib),log2 fold change [11],log2 fold change [12],log2 fold change [13],log2 fold change (pinometostat),log2 fold change [14],log2 fold change [15]
ANK3 (UniProt Q12955),inactive: 0.102,inactive: -0.017,inactive: -0.002,inactive: -0.016,inactive: -0.153,inactive: -0.072,inactive: -0.066,inactive: 0.071,inactive: -0.083,inactive: -0.047,inactive: -0.287,inactive: -0.015,inactive: 0.12,inactive: -0.036,inactive: 0.032,inactive: -0.053,inactive: 0.106,inactive: 0.403,inactive: 0.035,inactive: 0.046
APOBEC3G (UniProt Q9HC16),inactive: -0.087,inactive: 0.027,inactive: -0.124,inactive: 0.047,inactive: -0.005,inactive: 0.056,inactive: -0.056,inactive: 0.109,inactive: 0.181,inactive: -0.362,inactive: -0.064,inactive: 0.103,inactive: -0.111,inactive: 0.128,inactive: 0.075,inactive: 0.046,inactive: 0.077,inactive: 0.11,,active: -0.492
ARFRP1 (UniProt Q13795),inactive: -0.018,inactive: -0.017,inactive: 0.096,inactive: 0.008,inactive: 0.12,inactive: 0.048,inactive: 0.057,inactive: 0.015,inactive: -0.013,inactive: 0.032,inactive: -0.083,inactive: 0.031,inactive: 0.02,inactive: 0.004,inactive: -0.041,inactive: -0.028,inactive: -0.073,inactive: 0.017,,inactive: 0.075
ARHGAP1 (UniProt Q07960),inactive: -0.039,inactive: 0.014,inactive: 0.025,inactive: 0.021,inactive: 0.038,inactive: 0.021,inactive: 0.021,inactive: -0.011,inactive: 0.002,inactive: 0.019,inactive: 0.025,inactive: -0.014,inactive: -0.049,inactive: -0.022,inactive: -0.014,inactive: 0.162,inactive: 0.023,inactive: 0,,inactive: -0.014
AP3S1 (UniProt Q92572),inactive: 0.011,inactive: 0.024,inactive: -0.03,inactive: 0.074,inactive: 0.003,inactive: 0.008,inactive: -0.026,inactive: -0.03,inactive: 0.012,inactive: -0.006,inactive: -0.035,inactive: -0.052,inactive: 0,inactive: 0.012,inactive: -0.038,inactive: -0.038,inactive: 0.023,inactive: 0.02,inactive: 0.007,inactive: -0.036
ANXA2 isoform 2 (UniProt P07355),inactive: -0.032,inactive: 0.076,inactive: 0.069,inactive: -0.015,inactive: -0.041,inactive: -0.024,inactive: 0.066,inactive: 0.037,inactive: -0.027,inactive: 0.007,inactive: 0.021,inactive: -0.032,inactive: 0.007,inactive: 0.007,inactive: -0.012,inactive: -0.009,inactive: -0.082,inactive: -0.043,inactive: -0.045,inactive: 0.018
AP2S1 (UniProt P53680),inactive: -0.1,inactive: 0.148,inactive: -0.056,inactive: -0.018,inactive: 0.052,inactive: 0.013,inactive: -0.011,active: -0.27,active: -0.354,inactive: -0.003,inactive: -0.054,inactive: -0.01,inactive: -0.117,inactive: -0.017,inactive: -0.003,inactive: 0.028,inactive: -0.07,inactive: 0.038,,inactive: 0.091
ANKRD17 (UniProt O75179),inactive: 0.143,inactive: -0.188,inactive: -0.114,inactive: -0.078,inactive: 0.139,inactive: -0.083,inactive: -0.008,inactive: 0.019,inactive: -0.093,inactive: -0.002,inactive: -0.043,inactive: -0.044,inactive: -0.112,inactive: 0.205,inactive: 0,inactive: -0.146,inactive: 0.109,inactive: 0.268,inactive: 0.028,inactive: -0.094
ARGLU1 (UniProt Q9NWB6),inactive: 0.016,inactive: 0.052,inactive: -0.183,inactive: 0.115,active: -0.38,inactive: 0.014,inactive: -0.125,inactive: -0.235,inactive: -0.02,inactive: -0.232,inactive: -0.289,inactive: -0.019,active: -0.633,inactive: -0.029,inactive: 0.15,inactive: 0.023,inactive: -0.001,inactive: 0.127,,inactive: 0.134
ANKZF1 (UniProt Q9H8Y5),inactive: 0.142,inactive: 0.032,inactive: -0.141,inactive: 0,inactive: 0.015,inactive: -0.108,inactive: -0.035,inactive: -0.039,inactive: 0.057,inactive: -0.022,inactive: -0.052,inactive: 0.031,inactive: -0.19,inactive: 0.189,inactive: 0,inactive: -0.065,inactive: 0.192,inactive: 0.136,,inactive: -0.069
API5 (UniProt Q9BZZ5),inactive: -0.025,inactive: 0.023,inactive: 0.051,inactive: 0.005,inactive: 0.007,inactive: -0.003,inactive: 0.003,inactive: 0.022,inactive: -0.01,inactive: 0.041,inactive: 0.02,inactive: -0.016,inactive: -0.006,inactive: -0.014,inactive: -0.023,inactive: 0.031,inactive: 0,inactive: -0.052,inactive: -0.018,inactive: 0.045
AP2A2 isoform 2 (UniProt O94973),inactive: 0.007,inactive: 0.014,inactive: -0.004,inactive: -0.012,inactive: 0.007,inactive: 0.004,inactive: 0.072,inactive: -0.118,active: -0.284,inactive: 0.028,inactive: -0.003,inactive: -0.015,inactive: 0.008,inactive: 0.006,inactive: 0.033,inactive: 0.019,inactive: 0.032,inactive: 0.025,,inactive: 0.107
ARHGAP45 isoform 2 (UniProt Q92619),inactive: -0.034,inactive: 0.002,inactive: -0.014,inactive: 0.085,inactive: 0.08,inactive: 0.143,inactive: 0.04,inactive: -0.049,inactive: 0.026,inactive: 0.005,inactive: 0.004,inactive: -0.024,inactive: 0.052,inactive: -0.047,inactive: 0.068,inactive: 0.036,inactive: 0.007,inactive: 0,inactive: 0.048,inactive: 0.042
ANAPC2 (UniProt Q9UJX6),inactive: -0.028,inactive: 0.064,inactive: -0.002,inactive: 0.018,inactive: 0.002,inactive: 0.144,inactive: -0.029,inactive: 0.022,inactive: -0.033,inactive: -0.022,inactive: 0.018,inactive: -0.045,inactive: 0.005,inactive: 0.011,inactive: -0.025,inactive: -0.083,inactive: 0.055,inactive: 0.078,,inactive: -0.051
APLP2 (UniProt Q06481),inactive: 0.003,inactive: 0.009,inactive: -0.023,inactive: -0.034,inactive: 0.023,inactive: 0.004,inactive: 0.044,inactive: -0.03,inactive: -0.047,inactive: -0.002,inactive: -0.073,inactive: -0.005,inactive: -0.004,inactive: 0.086,inactive: 0.133,inactive: 0.167,inactive: 0.062,inactive: 0,,inactive: -0.225
AP4E1 (UniProt Q9UPM8),inactive: 0.204,inactive: 0.15,inactive: -0.139,inactive: -0.001,inactive: 0.088,inactive: 0.046,inactive: 0,inactive: -0.082,inactive: -0.061,inactive: -0.054,inactive: 0.016,inactive: 0.085,inactive: -0.081,inactive: 0.033,inactive: 0.042,inactive: -0.055,inactive: 0.026,inactive: 0.095,inactive: -0.203,inactive: 0.128

# Part of the list above, as tab-separated lines.
Target	log2 fold change (erlotinib)	log2 fold change [1]	log2 fold change [2]	log2 fold change [3]	log2 fold change [4]	log2 fold change [5]	log2 fold change [6]	log2 fold change [7]	log2 fold change [8]	log2 fold change [9]	log2 fold change (IRAK-1-4 Inhibitor I)	log2 fold change (ibrutinib)	log2 fold change [10]	log2 fold change (ralimetinib)	log2 fold change [11]	log2 fold change [12]	log2 fold change [13]	log2 fold change (pinometostat)	log2 fold change [14]	log2 fold change [15]
ARHGAP1 (UniProt Q07960)	inactive: -0.039	inactive: 0.014	inactive: 0.025	inactive: 0.021	inactive: 0.038	inactive: 0.021	inactive: 0.021	inactive: -0.011	inactive: 0.002	inactive: 0.019	inactive: 0.025	inactive: -0.014	inactive: -0.049	inactive: -0.022	inactive: -0.014	inactive: 0.162	inactive: 0.023	inactive: 0		inactive: -0.014
AP3S1 (UniProt Q92572)	inactive: 0.011	inactive: 0.024	inactive: -0.03	inactive: 0.074	inactive: 0.003	inactive: 0.008	inactive: -0.026	inactive: -0.03	inactive: 0.012	inactive: -0.006	inactive: -0.035	inactive: -0.052	inactive: 0	inactive: 0.012	inactive: -0.038	inactive: -0.038	inactive: 0.023	inactive: 0.02	inactive: 0.007	inactive: -0.036
